For one substance, isolated yield results are on record in patent US20200165312A1 (LG HOUSEHOLD & HEALTH CARE LTD., priority 2017, published 2020).

A short description of the data set: general procedure: Fmoc solid-phase peptide synthesis; HMP resin. The settings on record: whole synthesis, scale 0.25 mmol.

Where no end group is shown, it is not given here.

In the case of “Ac-EEMQRRNGSLNTHLAPIL (N-terminus assumed)”, the isolated yield result is given as “about 30±5%”.
